According to the RNAGym collection of RNA variant scans (doi:10.1126/science.aae0568):
Variants at the floor of the assay are shown more often than the library holds them.

B1: tRNA (parent)
chain: GUUCCGUUGGCGUAAUGGUAACGCGUCUCCCUCCUAAGGAGAAGACUGCGGGUUCGAGUCCCGUACGGAACG

Variants of: B1
Experiment: yeast fitness relative to wild type (ratio to wild type); higher = fitter; tRNA-Arg(CCU), competitive growth, 37 C, YPD
Method in brief: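 Variants of the tRNA-Arg(CCU) gene, chemically synthesised with a 3% per-site mutation rate at 69 sites, were placed at the native genomic locus in Saccharomyces cerevisiae. The pooled strains were competed in YPD at 37°C for 24 hours in six parallel replicates. Gene amplicons from the start population and from each end population were read by 100-nucleotide paired-end sequencing. Darwinian fitness relative to wild type came from changes in genotype frequencies; genotypes needed ≥ 100 starting reads, and estimates < 0.5 were set to 0.5.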

Row | Variant | yeast fitness
1 | C4U U8G A15U G51A C60U G68A | ≤ 0.5
2 | C4U U13A C46U U53A | 0.633
3 | C4U U13C A14G | 0.587
4 | C4U U13C U26A G63C | ≤ 0.5
5 | C4U U16A A37C G48C | ≤ 0.5
6 | C4U U16C A36U C49U G58C C66U | ≤ 0.5
7 | C4U U26C A36C U64A | ≤ 0.5
8 | C4U U26C A42U G50C A65U | 0.552
9 | C4U U26G C62U | ≤ 0.5
10 | C4U U32A A40C C62U | ≤ 0.5
11 | C4U U53C C61G G67A A69C | ≤ 0.5
12 | C5A A14C G18A C22A U47C | ≤ 0.5
13 | C5A A14U A15C C24G U26A G63A | ≤ 0.5
14 | C5A A15C C33A C34U A36C | ≤ 0.5
15 | C5A A15C U35G | ≤ 0.5
16 | C5A A15G C33A A57G C61U | ≤ 0.5
17 | C5A A15G C61A | ≤ 0.5
18 | C5A A15U A21U C49U | ≤ 0.5
19 | C5A A15U C31G G44A U47A G51C C66U | ≤ 0.5
20 | C5A A15U U32G U35A G39A G44C C62U | ≤ 0.5
21 | C5A A20C C24A G67U | ≤ 0.5
22 | C5A A20G A37G | ≤ 0.5
23 | C5A A20G C29A G51C G67C | ≤ 0.5
24 | C5A A20U C27A A42G A43G C46U A57C G67C | ≤ 0.5

Row | Variant | yeast fitness
25 | C5A A20U C55U C61U A65G A69U | ≤ 0.5
26 | C5A A21C U54C | ≤ 0.5
27 | C5A A21U C22G A57G C60U | ≤ 0.5
28 | C5A A21U G39C C55U | ≤ 0.5
29 | C5A A36U | 0.678
30 | C5A A40G C55A C61U | ≤ 0.5
31 | C5A A42C U64C | ≤ 0.5
32 | C5A A45G U47A C62A G67U | ≤ 0.5
33 | C5A C11G A14C A15C A40C A70C | ≤ 0.5
34 | C5A C11G A14U A20U C49U | ≤ 0.5
35 | C5A C11G A21G A40U C55U U59A | ≤ 0.5
36 | C5A C11G A21U A57C | ≤ 0.5
37 | C5A C11G A36G G41C | ≤ 0.5
38 | C5A C11G A40G G67C A69U | ≤ 0.5
39 | C5A C11G C24A | ≤ 0.5
40 | C5A C11U A14U A43G | ≤ 0.5
41 | C5A C22A C66U | ≤ 0.5
42 | C5A C22G C27G A36U A40C A57U C66U | ≤ 0.5
43 | C5A C22G G67A A70G | ≤ 0.5
44 | C5A C24A | 0.727
45 | C5A C24G C61U | ≤ 0.5
46 | C5A C24U C55U | ≤ 0.5
47 | C5A C27A U28G G38A C46G C62U | ≤ 0.5
48 | C5A C29A A70U | ≤ 0.5

Row | Variant | yeast fitness
49 | C5A C29A U32C A42C A45G | ≤ 0.5
50 | C5A C29U A43C A69U | ≤ 0.5
51 | C5A C29U G48C U53C | ≤ 0.5
52 | C5A C31G A37G C49U C62U G63C | ≤ 0.5
53 | C5A C31G A37G C55A | ≤ 0.5
54 | C5A C31U G44C | ≤ 0.5
55 | C5A C33A G39C C49U U54A A70U | ≤ 0.5
56 | C5A C33U G52A | ≤ 0.5
57 | C5A C34G A40U U47A G67C | ≤ 0.5
58 | C5A G6C A69C | ≤ 0.5
59 | C5A G6C G63A | ≤ 0.5
60 | C5A G9A C31A C55A C61A G63A | ≤ 0.5
61 | C5A G9A G41A U53C U64A | ≤ 0.5
62 | C5A G10A A15U G18A U26A A40U C46A C49U | ≤ 0.5
63 | C5A G12A G18A A57G G68A | ≤ 0.5
64 | C5A G17A A21C C33G A43U C55U | ≤ 0.5
65 | C5A G17A A36G | ≤ 0.5
66 | C5A G17A C46A C55G | ≤ 0.5
67 | C5A G23C G50C | ≤ 0.5
68 | C5A U7A A21U | ≤ 0.5
69 | C5A U7C C29U C66U | ≤ 0.5
70 | C5A U7C C55U A69C | ≤ 0.5
71 | C5A U8C A20G C34G A43U C66U | ≤ 0.5
72 | C5A U8C A21G A45C G56C A69U | ≤ 0.5

Row | Variant | yeast fitness
73 | C5A U8C C33U | ≤ 0.5
74 | C5A U8C G38A | ≤ 0.5
75 | C5A U13A A45C | 0.576
76 | C5A U13A A45C A65U | ≤ 0.5
77 | C5A U13A A57C | ≤ 0.5
78 | C5A U16A A45G G50A U59A C66A | ≤ 0.5
79 | C5A U28C A37C G56A U59C | ≤ 0.5
80 | C5A U28C U35C C66U | ≤ 0.5
81 | C5A U28G U59C | ≤ 0.5
82 | C5A U32C A36C G63A | ≤ 0.5
83 | C5A U53G C60A | ≤ 0.5
84 | C5G A14C G23C G38A G58C | ≤ 0.5
85 | C5G A14G C33A C55G | ≤ 0.5
86 | C5G A14G G25C C49G | ≤ 0.5
87 | C5G A14U C33G A43U U54C C66U | ≤ 0.5
88 | C5G A14U C34U A37G U47A | ≤ 0.5
89 | C5G A14U C66A | ≤ 0.5
90 | C5G A14U G18A A21U A42G G67A | ≤ 0.5
91 | C5G A14U G68C | ≤ 0.5
92 | C5G A20G A36C A42G | ≤ 0.5
93 | C5G A20G A40G G44A | ≤ 0.5
94 | C5G A20G A42G C55U C66G | ≤ 0.5
95 | C5G A20G C46U | 0.638
96 | C5G A20U C29G | ≤ 0.5

Row | Variant | yeast fitness
97 | C5G A21C U26A C34G G58C C60A | ≤ 0.5
98 | C5G A21C U32A C66A | ≤ 0.5
99 | C5G A21G C27G C34G A43C C46G | ≤ 0.5
100 | C5G A21G C27G C34G A43C C46G C66U A70G | ≤ 0.5
101 | C5G A21U G44C A57G C66U A70U | ≤ 0.5
102 | C5G A36C G52C A57C G63C | ≤ 0.5
103 | C5G A36U G41A A65U | 0.549
104 | C5G A42U | 0.683
105 | C5G A43U G68U | ≤ 0.5
106 | C5G A65U C66G | ≤ 0.5
107 | C5G A70U | 0.812
108 | C5G C11G A14U A15U C29A C60G | ≤ 0.5
109 | C5G C11G A15C A45U C49U G56C G63C | ≤ 0.5
110 | C5G C11G G23A G51U A57G | ≤ 0.5
111 | C5G C11G U35C G67A | ≤ 0.5
112 | C5G C11U A37C U54A | ≤ 0.5
113 | C5G C11U G17C A43U A69C | ≤ 0.5
114 | C5G C22A A37G G50C A70G | ≤ 0.5
115 | C5G C22A A37G G50C G67C | ≤ 0.5
116 | C5G C22A C30U U47A G67C | ≤ 0.5
117 | C5G C22U A36G C60A | ≤ 0.5
118 | C5G C22U C31G C60A | ≤ 0.5
119 | C5G C24A A42U A57C U64A | ≤ 0.5
120 | C5G C24U C62U | ≤ 0.5

Row | Variant | yeast fitness
121 | C5G C27G C33U C49U G56C | ≤ 0.5
122 | C5G C27G C33U G56A A69U | 0.52
123 | C5G C27U | 0.651
124 | C5G C29G G52A | ≤ 0.5
125 | C5G C29U A37G A65G | ≤ 0.5
126 | C5G C30G A65C C66U | ≤ 0.5
127 | C5G C30G G52A G67U | ≤ 0.5
128 | C5G C30U C55U | ≤ 0.5
129 | C5G C30U U54A | 0.601
130 | C5G C33A G41C U54C | ≤ 0.5
131 | C5G C33G A36U G39A A40G G63U | ≤ 0.5
132 | C5G C33G C34U A36C A43G G52C C60U | ≤ 0.5
133 | C5G C33G G41A G63A A69C | ≤ 0.5
134 | C5G C33U G39A | ≤ 0.5
135 | C5G C34A C66U | ≤ 0.5
136 | C5G C34A G68A | ≤ 0.5
137 | C5G C34A U53A | ≤ 0.5
138 | C5G C46A G48A U64G | 0.546
139 | C5G G6A A42U | ≤ 0.5
140 | C5G G6A C31U C49G | ≤ 0.5
141 | C5G G6C U26G | ≤ 0.5
142 | C5G G9C C31U A45U G56C G63C G67C | ≤ 0.5
143 | C5G G9C C66G | ≤ 0.5
144 | C5G G9C G58C | ≤ 0.5

Row | Variant | yeast fitness
145 | C5G G10A A37C G56A C66U | ≤ 0.5
146 | C5G G10A C11G U16G C33G C62U | ≤ 0.5
147 | C5G G10C U13G A40G U54A | ≤ 0.5
148 | C5G G10U A21C A43U | ≤ 0.5
149 | C5G G12A C55U | ≤ 0.5
150 | C5G G12C U19A C31A | ≤ 0.5
151 | C5G G17A U26C C60A | ≤ 0.5
152 | C5G G17C A70G | ≤ 0.5
153 | C5G G17C C29U | ≤ 0.5
154 | C5G G17C C62U G63C A70C | ≤ 0.5
155 | C5G G18A C27U C31A | ≤ 0.5
156 | C5G G23A C29U A70C | ≤ 0.5
157 | C5G G23A C60U C62G | ≤ 0.5
158 | C5G G23C C33U G39A A43C | ≤ 0.5
159 | C5G G25A | 0.981
160 | C5G G25A C46A | 0.651
161 | C5G G25C C62G C66G G67U | ≤ 0.5
162 | C5G G38A | 0.729
163 | C5G G38C U54A | ≤ 0.5
164 | C5G G50A G51A | ≤ 0.5
165 | C5G U7A | 0.792
166 | C5G U7A A20C U28C C60U A69U | ≤ 0.5
167 | C5G U7A G12A A20C C60U A69U | ≤ 0.5
